For part of these data: For expression read-outs the peptide stands for its source gene, whose mRNA was measured; the gene is not named for every peptide.
Key:
Set-up in all cases: species or system human
[1] = tested on: HLA-A*24 molecules of primary tumors; assay: Identification and relative LC-MS quantitation of HLA-A*24 tumor-associated peptides presented on tissue samples (XPRESIDENT presentation profiles); conditions: Table 9A: selected HLA-A*24-binding tumor-associated peptides; cancer entities on which the peptide was found presented
[2] = tested on: source genes of selected peptides; assay: Target coverage of source genes in tumor entities based on TCGA Research Network data; conditions: over-expressed = more than 2-fold above the highest 75% percentile of normal organs; for Target coverage, over-expression category of source gene, BLCA (N = 408): Bladder urothelial carcinoma; for Target coverage, over-expression category of source gene, CESC (N = 307): Cervical squamous cell carcinoma and endocervical adenocarcinoma; for Target coverage, over-expression category of source gene, HNSC (N = 521): Head and neck squamous cell carcinoma; for Target coverage, over-expression category of source gene, DLBC (N = 48): Lymphoid neoplasm diffuse large B-cell lymphoma
[3] = tested on: source genes of selected peptides; assay: Expression profiling of source genes by in-house RNAseq, tumor vs normal tissues (target coverage); conditions: for Target coverage, over-expression of source gene, AML: AML (N = 7), over-expression = more than 1.5-fold higher expression on tumor vs highest-expressing relevant normal tissue; for Target coverage, over-expression of source gene, AML / Target coverage, over-expression of source gene, BRCA / Target coverage, over-expression of source gene, CLL / Target coverage, over-expression of source gene, CRC / Target coverage, over-expression of source gene, GB / Target coverage, over-expression of source gene, HCC / Target coverage, over-expression of source gene, OC / Target coverage, over-expression of source gene, OSCAR / Target coverage, over-expression of source gene, PC / Target coverage, over-expression of source gene, RCC / Target coverage, over-expression of source gene, SCLC / Target coverage, over-expression of source gene, pNSCLC: in-house RNASeq; for Target coverage, over-expression of source gene, BRCA: BRCA (N = 10); for Target coverage, over-expression of source gene, BRCA / Target coverage, over-expression of source gene, CLL / Target coverage, over-expression of source gene, CRC / Target coverage, over-expression of source gene, GB / Target coverage, over-expression of source gene, HCC / Target coverage, over-expression of source gene, OC / Target coverage, over-expression of source gene, OSCAR / Target coverage, over-expression of source gene, PC / Target coverage, over-expression of source gene, RCC / Target coverage, over-expression of source gene, SCLC / Target coverage, over-expression of source gene, pNSCLC: over-expression = more than 1.5-fold vs highest normal tissue; for Target coverage, over-expression of source gene, CLL: CLL (N = 10); for Target coverage, over-expression of source gene, CRC: CRC (N = 20); for Target coverage, over-expression of source gene, GB: GB (N = 24); for Target coverage, over-expression of source gene, HCC: HCC (N = 15); for Target coverage, over-expression of source gene, OC: OC (N = 12); for Target coverage, over-expression of source gene, OSCAR: OSCAR (N = 11); for Target coverage, over-expression of source gene, PC: PC (N = 26); for Target coverage, over-expression of source gene, RCC: RCC (N = 10); for Target coverage, over-expression of source gene, SCLC: SCLC (N = 10); for Target coverage for source genes of selected peptides, GBC_CCC (N = 10): gallbladder adenocarcinoma and cholangiocarcinoma; for Target coverage for source genes of selected peptides, GBC_CCC (N = 10) / Target coverage for source genes of selected peptides, GC (N = 11) / Target coverage for source genes of selected peptides, HNSCC (N = 10) / Target coverage for source genes of selected peptides, MEL (N = 10) / Target coverage for source genes of selected peptides, NHL (N = 10) / Target coverage for source genes of selected peptides, PCA (n = 10) / Target coverage for source genes of selected peptides, UBC (N = 10) / Target coverage for source genes of selected peptides, UTC (N = 10): share of tumors with more than 1.5-fold higher expression than the highest-expressing relevant normal tissue, in-house RNAseq; for Target coverage for source genes of selected peptides, GC (N = 11): gastric cancer; for Target coverage for source genes of selected peptides, HNSCC (N = 10): head and neck small cell carcinoma; for Target coverage for source genes of selected peptides, MEL (N = 10): melanoma; for Target coverage for source genes of selected peptides, NHL (N = 10): non-Hodgkin lymphoma; for Target coverage, over-expression of source gene, pNSCLC: pNSCLC (N = 11); for Target coverage for source genes of selected peptides, PCA (n = 10): prostate cancer and benign prostate hyperplasia; for Target coverage for source genes of selected peptides, UBC (N = 10): urinary bladder cancer; for Target coverage for source genes of selected peptides, UTC (N = 10): uterine cancer

Substance | ENTITIES [1] | Target coverage, over-expression category of source gene, BLCA (N = 408) [2] | Target coverage, over-expression category of source gene, CESC (N = 307) [2] | Target coverage, over-expression category of source gene, HNSC (N = 521) [2] | Target coverage, over-expression of source gene, AML [3] | Target coverage, over-expression of source gene, BRCA [3] | Target coverage, over-expression of source gene, CLL [3] | Target coverage, over-expression of source gene, CRC [3] | Target coverage, over-expression of source gene, GB [3] | Target coverage, over-expression of source gene, HCC [3] | Target coverage, over-expression of source gene, OC [3] | Target coverage for source genes of selected peptides, GBC_CCC (N = 10) [3] | Target coverage for source genes of selected peptides, GC (N = 11) [3] | Target coverage for source genes of selected peptides, HNSCC (N = 10) [3] | Target coverage for source genes of selected peptides, MEL (N = 10) [3] | Target coverage for source genes of selected peptides, NHL (N = 10) [3] | Target coverage for source genes of selected peptides, PCA (n = 10) [3] | Target coverage for source genes of selected peptides, UBC (N = 10) [3] | Target coverage for source genes of selected peptides, UTC (N = 10) [3] | Target coverage, over-expression category of source gene, DLBC (N = 48) [2] | also measured
123: peptide found in PRKDC (gene looked up) (VYTPVLEHL; listed as Homo sapiens) [compound 123] | NSCLC, GC, GB, HCC | C (>=5% of tumors above the cutoff, but <20%) | C (>=5% of tumors above the cutoff, but <20%) | B (>=20% of tumors above the cutoff, but <50%) | I (<19% over-expression = I) | III (50-69% = III) | I (<19% over-expression = I) | II (20-49% = II) | III (50-69% = III) | I (<19% over-expression = I) | III (50-69% = III) | I (<19% over-expression = I) | I (<19% over-expression = I) | I (<19% over-expression = I) | II (20-49% = II) | II (20-49% = II) | I (<19% over-expression = I) | I (<19% over-expression = I) | I (<19% over-expression = I) | – | Target coverage, over-expression of source gene, OSCAR [3]: II (20-49% = II); Target coverage, over-expression of source gene, PC [3]: I (<19% over-expression = I); Target coverage, over-expression of source gene, RCC [3]: I (<19% over-expression = I); Target coverage, over-expression of source gene, SCLC [3]: IV (>70% = IV); Target coverage, over-expression of source gene, pNSCLC [3]: III (50-69% = III)
124: peptide found in PRKDC (gene looked up) (TYKDYVDLF; listed as Homo sapiens) [compound 124] | GC, RCC, GB, PCA, HCC, NSCLC | C (>=5% of tumors above the cutoff, but <20%) | C (>=5% of tumors above the cutoff, but <20%) | B (>=20% of tumors above the cutoff, but <50%) | I (<19% over-expression = I) | III (50-69% = III) | I (<19% over-expression = I) | II (20-49% = II) | III (50-69% = III) | I (<19% over-expression = I) | III (50-69% = III) | I (<19% over-expression = I) | I (<19% over-expression = I) | I (<19% over-expression = I) | II (20-49% = II) | II (20-49% = II) | I (<19% over-expression = I) | I (<19% over-expression = I) | I (<19% over-expression = I) | – | Target coverage, over-expression of source gene, OSCAR [3]: II (20-49% = II); Target coverage, over-expression of source gene, PC [3]: I (<19% over-expression = I); Target coverage, over-expression of source gene, RCC [3]: I (<19% over-expression = I); Target coverage, over-expression of source gene, SCLC [3]: IV (>70% = IV); Target coverage, over-expression of source gene, pNSCLC [3]: III (50-69% = III)
125: peptide found in PRKDC (gene looked up) (VFSRDFGLLVF; listed as Homo sapiens) [compound 125] | GC, HCC, NSCLC | C (>=5% of tumors above the cutoff, but <20%) | C (>=5% of tumors above the cutoff, but <20%) | B (>=20% of tumors above the cutoff, but <50%) | I (<19% over-expression = I) | III (50-69% = III) | I (<19% over-expression = I) | II (20-49% = II) | III (50-69% = III) | I (<19% over-expression = I) | III (50-69% = III) | – | – | – | – | – | – | – | – | – | Target coverage, over-expression of source gene, OSCAR [3]: II (20-49% = II); Target coverage, over-expression of source gene, PC [3]: I (<19% over-expression = I); Target coverage, over-expression of source gene, RCC [3]: I (<19% over-expression = I); Target coverage, over-expression of source gene, SCLC [3]: IV (>70% = IV); Target coverage, over-expression of source gene, pNSCLC [3]: III (50-69% = III)
128: peptide found in PLA2G7 (gene looked up) (VYPFDWQYI; listed as Homo sapiens) [compound 128] | GB, PCA, HCC, NSCLC, GC | – | – | – | – | – | – | – | – | – | – | I (<19% over-expression = I) | I (<19% over-expression = I) | I (<19% over-expression = I) | I (<19% over-expression = I) | I (<19% over-expression = I) | I (<19% over-expression = I) | I (<19% over-expression = I) | I (<19% over-expression = I) | C (>=5% of tumors above the cutoff, but <20%) | –
144: peptide found in CCR4 (gene looked up) (VFASLPGFLF; listed as Homo sapiens) [compound 144] | NSCLC, GC | – | – | – | – | – | – | – | – | – | – | I (<19% over-expression = I) | I (<19% over-expression = I) | I (<19% over-expression = I) | I (<19% over-expression = I) | III (50-69% = III) | I (<19% over-expression = I) | I (<19% over-expression = I) | I (<19% over-expression = I) | C (>=5% of tumors above the cutoff, but <20%) | –
145: peptide found in CCR8 (gene looked up) (VYALKVRTI; listed as Homo sapiens) [compound 145] | NSCLC | – | – | C (>=5% of tumors above the cutoff, but <20%) | – | – | – | – | – | – | – | II (20-49% = II) | I (<19% over-expression = I) | II (20-49% = II) | II (20-49% = II) | II (20-49% = II) | I (<19% over-expression = I) | II (20-49% = II) | I (<19% over-expression = I) | C (>=5% of tumors above the cutoff, but <20%) | –
161: peptide found in ICOS (gene looked up) (KYPDIVQQF; listed as Homo sapiens) [compound 161] | PCA, HCC, NSCLC, GC | – | – | – | – | – | – | – | – | – | – | I (<19% over-expression = I) | I (<19% over-expression = I) | I (<19% over-expression = I) | I (<19% over-expression = I) | II (20-49% = II) | I (<19% over-expression = I) | I (<19% over-expression = I) | I (<19% over-expression = I) | C (>=5% of tumors above the cutoff, but <20%) | –
